Data published in patent US5393740A, “Neurotensin Hexapeptides” (Tsumura & Co., priority 1991, dated 1995).
Not every detail of the peptide structures is certain; ends, links or a residue may be inferred.

Test system: ICR mice
Test: Anti-shock action (endotoxin-induced lethality)
Format: in vivo, mouse
Details: 32 nmol/kg × 4 intravenously, endotoxin (LPS E. coli 0127B8) 10 mg/kg i.v. after 10 minutes; male ICR mice; control 80
Method: In this experiment, male ICR mice (each group consisted of 10 mice) each having a weight of 25 g to 35 g were used. Each of peptides Nos. 1, 31 and 32 was dissolved in a sodium acetate buffered solution (pH 6.0) added with 1% BSA or in a physiological saline.
An endotoxin to induce a shock was obtained by dissolving Lipopolysaccharide [E. coli; 0127B8 (Difco)] in a physiological saline.
Each of peptialdes Nos. 1, 31 and 32 was intravenously injected at a by dose of 5 ml/kg to each mouse, and the endotoxin with concentration of 10 mg/kg was intravenously injected at a dose of 5 ml/kg after 10 minutes. The lethal rates (%) of these mice within 24 hours were measured. As a control, 5 ml/kg of the sodium acetate buffered solution added with 1% BSA was injected instead of the hexapeptide of the present invention.

| SMILES | Lethal rate within 24 hours (%) |
| --- | --- |
| CC[C@H](C)[C@H](NC(=O)[C@H](Cc1ccc(O)cc1)NC(=O)[C@@H]1CCCN1C(=O)[C@H](CCCNC(=N)N)NC(=O)[C@H](CCCNC(=N)N)NC(C)=O)C(=O)N[C@H](CO)CC(C)C [Peptide No. 31, N-acetyl--Arg--Arg--Pro--Tyr--Ile-Leucinol] | 10% |
| CC[C@H](C)[C@H](NC(=O)[C@H](Cc1ccc(O)cc1)NC(=O)[C@@H]1CCCN1C(=O)[C@H](CCCNC(=N)N)NC(=O)CCCCNC(=N)N)C(=O)N[C@@H](CC(C)C)C(=O)O [Peptide No. 1, Desamino-Arg--Arg--Pro--Tyr--Ile--Leu--OH] | 20% |
